This is one part of the list.
The targets below were run with CS(=O)(=O)N1CCN(Cc2cc3nc(-c4cccc5[nH]ncc45)nc(N4CCOCC4)c3s2)CC1 [pictilisib] (assay: log2 fold change, soluble protein after heating vs DMSO (PISA); higher = thermal stabilisation; K562 cells, 10 uM, 30 min; active = over 0.2 and 3.5 SD of the protein, either way, in both replicates (recomputed)).
How it was run: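 Aliquots of K562 cells (2×10^6 cells/mL) treated with 10 μM compound for 30 min were heated for 3 min over 48°C-58°C. After pooling and extraction in PBS with 0.5% NP-40 at 4°C, soluble protein from a 21,000xg, 90 min spin was quantified by TMTpro 16plex LC-MS/MS with channel sums equalised. Thermal stability is expressed against control samples, from duplicates, as a log2 fold change.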

Sequences of proteins named here, by UniProt entry; tags and fusion partners are left off. A change or cut given only in a name is not applied to a line headed by its entry.
UniProt Q9H6W3: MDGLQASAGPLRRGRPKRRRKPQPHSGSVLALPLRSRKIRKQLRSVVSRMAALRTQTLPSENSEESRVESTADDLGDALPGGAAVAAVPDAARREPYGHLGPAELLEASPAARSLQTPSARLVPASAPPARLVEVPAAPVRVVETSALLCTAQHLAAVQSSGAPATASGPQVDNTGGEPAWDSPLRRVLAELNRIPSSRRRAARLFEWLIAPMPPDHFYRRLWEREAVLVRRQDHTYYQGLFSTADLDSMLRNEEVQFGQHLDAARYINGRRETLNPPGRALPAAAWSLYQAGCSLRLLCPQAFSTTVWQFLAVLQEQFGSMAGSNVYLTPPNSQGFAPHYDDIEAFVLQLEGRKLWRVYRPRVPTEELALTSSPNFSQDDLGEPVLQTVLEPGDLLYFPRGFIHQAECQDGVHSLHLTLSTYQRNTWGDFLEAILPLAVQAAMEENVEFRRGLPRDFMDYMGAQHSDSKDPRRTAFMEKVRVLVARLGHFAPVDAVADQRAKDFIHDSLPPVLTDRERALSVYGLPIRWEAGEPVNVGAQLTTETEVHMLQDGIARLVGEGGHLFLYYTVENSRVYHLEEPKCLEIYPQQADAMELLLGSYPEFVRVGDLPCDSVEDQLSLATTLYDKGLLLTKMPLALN
UniProt Q9Y225: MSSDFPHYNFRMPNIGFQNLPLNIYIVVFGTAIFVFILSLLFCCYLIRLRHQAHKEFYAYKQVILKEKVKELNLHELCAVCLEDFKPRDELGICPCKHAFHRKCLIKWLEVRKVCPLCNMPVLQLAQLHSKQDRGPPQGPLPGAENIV
UniProt Q8NCN4: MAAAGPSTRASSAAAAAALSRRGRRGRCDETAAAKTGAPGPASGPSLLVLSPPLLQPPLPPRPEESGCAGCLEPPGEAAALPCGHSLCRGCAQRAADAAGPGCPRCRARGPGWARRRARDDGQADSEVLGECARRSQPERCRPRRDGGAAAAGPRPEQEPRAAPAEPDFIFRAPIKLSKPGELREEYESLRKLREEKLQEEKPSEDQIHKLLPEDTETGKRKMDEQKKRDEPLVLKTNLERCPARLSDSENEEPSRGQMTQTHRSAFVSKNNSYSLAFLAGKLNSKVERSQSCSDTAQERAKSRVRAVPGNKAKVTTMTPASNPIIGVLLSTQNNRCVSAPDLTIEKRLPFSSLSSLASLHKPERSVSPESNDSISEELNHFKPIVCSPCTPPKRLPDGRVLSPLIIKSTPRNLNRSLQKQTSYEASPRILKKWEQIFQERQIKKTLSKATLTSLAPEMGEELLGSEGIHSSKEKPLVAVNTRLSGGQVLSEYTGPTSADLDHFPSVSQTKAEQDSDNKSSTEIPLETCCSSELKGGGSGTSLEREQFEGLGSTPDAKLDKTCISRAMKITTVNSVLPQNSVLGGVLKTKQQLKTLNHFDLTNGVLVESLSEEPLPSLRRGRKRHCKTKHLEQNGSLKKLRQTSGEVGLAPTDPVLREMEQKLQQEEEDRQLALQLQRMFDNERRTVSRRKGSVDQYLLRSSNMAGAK
UniProt O94762: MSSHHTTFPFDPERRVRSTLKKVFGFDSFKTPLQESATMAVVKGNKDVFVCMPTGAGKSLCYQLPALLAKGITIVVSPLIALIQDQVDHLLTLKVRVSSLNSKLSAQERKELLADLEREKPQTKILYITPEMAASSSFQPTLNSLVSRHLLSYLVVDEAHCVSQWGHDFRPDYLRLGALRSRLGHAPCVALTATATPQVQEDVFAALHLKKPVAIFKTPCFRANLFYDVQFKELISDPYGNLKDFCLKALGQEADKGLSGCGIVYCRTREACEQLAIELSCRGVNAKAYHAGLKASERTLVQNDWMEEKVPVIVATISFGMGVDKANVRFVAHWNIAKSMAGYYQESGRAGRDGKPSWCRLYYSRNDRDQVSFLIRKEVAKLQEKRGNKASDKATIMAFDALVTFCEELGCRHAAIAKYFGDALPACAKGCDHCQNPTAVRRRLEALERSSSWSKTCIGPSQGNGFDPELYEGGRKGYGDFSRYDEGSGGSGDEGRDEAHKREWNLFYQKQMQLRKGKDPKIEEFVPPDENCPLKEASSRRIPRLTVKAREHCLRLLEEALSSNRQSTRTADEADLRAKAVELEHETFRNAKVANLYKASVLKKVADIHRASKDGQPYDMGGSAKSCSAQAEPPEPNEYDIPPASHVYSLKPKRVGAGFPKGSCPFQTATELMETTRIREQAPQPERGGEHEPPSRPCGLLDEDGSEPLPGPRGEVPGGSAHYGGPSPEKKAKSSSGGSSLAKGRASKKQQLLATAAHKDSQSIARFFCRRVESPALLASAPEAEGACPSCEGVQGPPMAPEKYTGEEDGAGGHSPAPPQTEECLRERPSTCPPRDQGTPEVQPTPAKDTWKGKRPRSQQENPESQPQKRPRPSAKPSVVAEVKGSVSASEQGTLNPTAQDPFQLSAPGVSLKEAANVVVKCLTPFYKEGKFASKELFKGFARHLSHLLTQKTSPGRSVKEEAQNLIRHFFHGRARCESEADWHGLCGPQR
UniProt P34096: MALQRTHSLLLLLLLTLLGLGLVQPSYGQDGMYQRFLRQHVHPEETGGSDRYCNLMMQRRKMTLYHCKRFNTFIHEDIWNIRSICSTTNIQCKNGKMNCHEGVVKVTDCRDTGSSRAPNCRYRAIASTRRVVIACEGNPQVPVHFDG
UniProt O43566: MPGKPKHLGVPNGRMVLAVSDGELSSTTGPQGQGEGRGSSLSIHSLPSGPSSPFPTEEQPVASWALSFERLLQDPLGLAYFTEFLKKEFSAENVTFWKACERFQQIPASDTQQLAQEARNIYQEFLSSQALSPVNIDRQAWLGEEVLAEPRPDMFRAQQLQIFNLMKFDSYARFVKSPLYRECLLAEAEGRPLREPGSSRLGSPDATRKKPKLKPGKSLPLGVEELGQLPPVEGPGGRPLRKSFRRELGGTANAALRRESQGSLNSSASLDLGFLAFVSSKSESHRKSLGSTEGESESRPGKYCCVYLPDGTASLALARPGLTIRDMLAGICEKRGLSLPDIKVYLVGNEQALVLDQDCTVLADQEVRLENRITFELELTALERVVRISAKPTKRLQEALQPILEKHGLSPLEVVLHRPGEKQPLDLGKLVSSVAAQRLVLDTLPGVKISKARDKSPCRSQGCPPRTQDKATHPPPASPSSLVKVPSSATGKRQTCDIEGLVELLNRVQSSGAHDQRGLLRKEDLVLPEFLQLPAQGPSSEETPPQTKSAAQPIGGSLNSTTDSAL
UniProt O14593: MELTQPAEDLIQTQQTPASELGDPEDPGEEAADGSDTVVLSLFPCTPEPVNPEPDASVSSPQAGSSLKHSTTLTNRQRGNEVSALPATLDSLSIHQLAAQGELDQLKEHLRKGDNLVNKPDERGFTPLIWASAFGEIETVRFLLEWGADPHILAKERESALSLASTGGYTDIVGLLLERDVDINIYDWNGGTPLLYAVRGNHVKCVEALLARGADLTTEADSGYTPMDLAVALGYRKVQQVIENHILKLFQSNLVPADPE
UniProt Q8WVD5: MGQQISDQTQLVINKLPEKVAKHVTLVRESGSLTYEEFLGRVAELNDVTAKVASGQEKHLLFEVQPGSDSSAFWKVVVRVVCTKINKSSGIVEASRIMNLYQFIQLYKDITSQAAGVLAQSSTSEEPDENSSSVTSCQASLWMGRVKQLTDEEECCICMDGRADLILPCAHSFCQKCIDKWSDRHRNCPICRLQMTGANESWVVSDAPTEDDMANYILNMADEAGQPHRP
UniProt P09455: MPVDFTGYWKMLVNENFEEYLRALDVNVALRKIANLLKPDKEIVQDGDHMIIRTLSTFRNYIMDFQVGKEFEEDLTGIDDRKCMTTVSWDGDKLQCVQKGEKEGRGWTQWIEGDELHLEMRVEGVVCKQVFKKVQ
UniProt Q9HBD1: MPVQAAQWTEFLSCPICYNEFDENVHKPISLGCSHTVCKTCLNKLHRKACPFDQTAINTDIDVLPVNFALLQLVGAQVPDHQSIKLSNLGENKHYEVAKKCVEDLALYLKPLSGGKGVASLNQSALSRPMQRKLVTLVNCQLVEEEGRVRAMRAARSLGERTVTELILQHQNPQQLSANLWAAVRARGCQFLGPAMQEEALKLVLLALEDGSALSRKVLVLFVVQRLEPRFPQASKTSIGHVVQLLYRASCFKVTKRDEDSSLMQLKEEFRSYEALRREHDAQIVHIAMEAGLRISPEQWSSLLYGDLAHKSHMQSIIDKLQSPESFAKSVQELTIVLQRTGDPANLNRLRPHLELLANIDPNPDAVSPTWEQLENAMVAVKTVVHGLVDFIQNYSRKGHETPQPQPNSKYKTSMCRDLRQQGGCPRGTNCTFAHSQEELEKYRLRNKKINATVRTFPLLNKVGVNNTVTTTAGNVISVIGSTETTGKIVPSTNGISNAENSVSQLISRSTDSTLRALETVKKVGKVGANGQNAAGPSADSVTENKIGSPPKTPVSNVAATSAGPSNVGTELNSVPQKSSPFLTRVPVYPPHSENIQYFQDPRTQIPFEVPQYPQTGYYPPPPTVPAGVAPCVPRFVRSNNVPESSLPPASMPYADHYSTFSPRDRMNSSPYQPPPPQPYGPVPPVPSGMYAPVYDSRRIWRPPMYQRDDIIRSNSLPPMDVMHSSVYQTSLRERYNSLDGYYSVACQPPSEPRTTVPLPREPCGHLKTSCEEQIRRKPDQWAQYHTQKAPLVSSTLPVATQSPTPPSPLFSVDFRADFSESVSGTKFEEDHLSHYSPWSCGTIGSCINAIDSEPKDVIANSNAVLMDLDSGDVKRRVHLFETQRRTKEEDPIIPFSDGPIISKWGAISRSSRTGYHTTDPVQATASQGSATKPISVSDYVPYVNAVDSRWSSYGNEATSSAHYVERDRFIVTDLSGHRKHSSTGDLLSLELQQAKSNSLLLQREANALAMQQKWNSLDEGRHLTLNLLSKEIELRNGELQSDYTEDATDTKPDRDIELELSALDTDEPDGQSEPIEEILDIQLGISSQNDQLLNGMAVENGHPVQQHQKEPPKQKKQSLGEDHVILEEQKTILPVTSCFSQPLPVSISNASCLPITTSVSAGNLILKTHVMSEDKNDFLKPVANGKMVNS
UniProt Q92963, whole entry, looked up: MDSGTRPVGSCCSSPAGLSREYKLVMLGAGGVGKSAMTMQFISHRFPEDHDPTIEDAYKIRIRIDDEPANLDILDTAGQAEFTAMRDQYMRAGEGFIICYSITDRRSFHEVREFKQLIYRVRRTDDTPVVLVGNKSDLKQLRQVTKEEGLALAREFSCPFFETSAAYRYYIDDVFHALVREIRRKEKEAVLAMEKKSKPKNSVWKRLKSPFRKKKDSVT
UniProt P48382: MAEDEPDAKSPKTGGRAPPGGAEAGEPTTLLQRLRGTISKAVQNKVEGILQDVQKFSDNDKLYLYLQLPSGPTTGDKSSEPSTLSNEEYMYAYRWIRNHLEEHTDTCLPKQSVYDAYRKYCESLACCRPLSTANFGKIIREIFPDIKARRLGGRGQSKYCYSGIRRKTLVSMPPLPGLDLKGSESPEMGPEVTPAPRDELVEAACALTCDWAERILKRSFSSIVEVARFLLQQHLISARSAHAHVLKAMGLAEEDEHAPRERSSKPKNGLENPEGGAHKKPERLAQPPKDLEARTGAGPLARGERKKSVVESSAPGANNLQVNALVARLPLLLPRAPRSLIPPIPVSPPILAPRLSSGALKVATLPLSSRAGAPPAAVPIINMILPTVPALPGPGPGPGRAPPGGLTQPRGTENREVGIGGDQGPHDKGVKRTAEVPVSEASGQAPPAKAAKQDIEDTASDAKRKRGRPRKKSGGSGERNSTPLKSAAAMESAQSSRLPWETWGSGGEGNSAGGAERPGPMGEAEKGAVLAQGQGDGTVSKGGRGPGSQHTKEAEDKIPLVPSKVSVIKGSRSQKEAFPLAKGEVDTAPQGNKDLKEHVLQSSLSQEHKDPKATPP
UniProt Q05823: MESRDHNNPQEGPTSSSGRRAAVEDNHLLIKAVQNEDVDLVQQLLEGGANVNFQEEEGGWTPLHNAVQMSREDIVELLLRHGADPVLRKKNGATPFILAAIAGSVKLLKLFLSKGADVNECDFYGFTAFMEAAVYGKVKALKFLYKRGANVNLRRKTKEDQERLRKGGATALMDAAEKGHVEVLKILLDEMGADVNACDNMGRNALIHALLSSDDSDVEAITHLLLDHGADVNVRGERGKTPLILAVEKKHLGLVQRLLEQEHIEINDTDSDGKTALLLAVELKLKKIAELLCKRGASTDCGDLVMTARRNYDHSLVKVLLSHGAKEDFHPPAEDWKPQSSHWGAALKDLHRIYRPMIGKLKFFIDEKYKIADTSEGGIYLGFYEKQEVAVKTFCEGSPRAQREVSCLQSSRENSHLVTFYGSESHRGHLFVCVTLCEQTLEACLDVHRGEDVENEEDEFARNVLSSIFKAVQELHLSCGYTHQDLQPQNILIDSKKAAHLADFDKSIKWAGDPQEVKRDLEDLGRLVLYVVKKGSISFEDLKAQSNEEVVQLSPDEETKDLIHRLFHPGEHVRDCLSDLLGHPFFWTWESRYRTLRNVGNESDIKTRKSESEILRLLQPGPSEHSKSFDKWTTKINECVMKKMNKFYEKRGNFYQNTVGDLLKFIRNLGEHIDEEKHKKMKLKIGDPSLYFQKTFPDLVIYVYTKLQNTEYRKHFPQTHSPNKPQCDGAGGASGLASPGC

Question: For RIOX1 (UniProt Q9H6W3), which log2 fold change is on record?
Answer: inactive: -0.07

Question: RNF24 isoform 2 (UniProt Q9Y225) was tested. Which log2 fold change did it give?
Answer: inactive: 0.06

Question: How did the log2 fold change turn out when RNF139 (UniProt Q8WU17) was run?
Answer: inactive: -0.039

Question: How did the log2 fold change turn out when RBMY1E (UniProt A6NEQ0) was run?
Answer: inactive: 0.015

Question: For RING1 (UniProt Q06587), which log2 fold change is on record?
Answer: inactive: -0.074

Question: With RBM48 isoform 2 (UniProt Q5RL73) as the target, how does the log2 fold change read?
Answer: inactive: -0.083

Question: Which log2 fold change does the source give for RNF169 (UniProt Q8NCN4) here?
Answer: inactive: -0.054

Question: Which log2 fold change does the source give for RECQL5 (UniProt O94762) here?
Answer: inactive: 0.027

Question: How did the log2 fold change turn out when RHBDD2 isoform 2 (UniProt Q6NTF9) was run?
Answer: inactive: 0.149

Question: With RNASE4 (UniProt P34096) as the target, how does the log2 fold change read?
Answer: inactive: -0.103

Question: Which log2 fold change does the source give for RNF170 (UniProt Q96K19) here?
Answer: inactive: -0.015

Question: With RGS14 (UniProt O43566) as the target, how does the log2 fold change read?
Answer: inactive: -0.004

Question: Which log2 fold change does the source give for RNF185 (UniProt Q96GF1) here?
Answer: inactive: 0.076

Question: Which log2 fold change does the source give for RFXANK (UniProt O14593) here?
Answer: inactive: -0.175

Question: RNF141 (UniProt Q8WVD5) was tested. Which log2 fold change did it give?
Answer: inactive: 0.116

Question: How did the log2 fold change turn out when RBP1 isoform 3 (UniProt P09455) was run?
Answer: inactive: -0.309

Question: For RGCC (UniProt Q9H4X1), which log2 fold change is on record?
Answer: inactive: 0.011

Question: RC3H2 (UniProt Q9HBD1) was tested. Which log2 fold change did it give?
Answer: inactive: -0.064

Question: How did the log2 fold change turn out when RIT1 isoform 3 (UniProt Q92963) was run?
Answer: inactive: 0.085

Question: How did the log2 fold change turn out when RNF111 isoform 3 (UniProt Q6ZNA4) was run?
Answer: inactive: -0.079

Question: How did the log2 fold change turn out when RFX5 (UniProt P48382) was run?
Answer: inactive: 0.062

Question: With RNASEL (UniProt Q05823) as the target, how does the log2 fold change read?
Answer: inactive: 0.069
